The reference is the same well before dosing, and untreated signal decays as well.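 Fibroblast labels name human fibroblasts: mostly primary ones from tissues such as uterus (C12385, HUF), lung (H6013), bone (Hs27A), adrenal (HADF) and skin (WS1), plus mammary HMF and breast cancer-associated Hs343T. The cancer cells are basal-like or mesenchymal-like triple-negative breast cancer lines. The paper calls a changed response a hit when it shifts by more than 3x the replicate standard deviation. The tissue of the other fibroblasts is not given here.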
System: MDAMB231
Assay: relative JC-1 red fluorescence (viability) vs pre-drug, coculture with fibroblast (fraction); higher = more viable cancer cells
Conditions: 100 µM
Method: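 JC-1 labelled TNBC cells cocultured 1:1 (1,500 cells each) with CellTrace Violet stained primary or stromal fibroblasts in 384-well plates in FluoroBrite medium, treated with one of 42 anticancer drugs at 0.1, 1, 10 or 100 uM. JC-1 red fluorescence (mitochondrial integrity in cancer cells only) was read by plate reader every 8 h for 72 h. Values are normalised to each well's pre-drug value. The stock of one drug was tenfold lower, so its dose labels may be too high.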

CC(C)(C#N)c1cc(Cn2cncn2)cc(C(C)(C)C#N)c1 [Anastrozole]
relative JC-1 red fluorescence
Conditions | 8 h | 16 h | 24 h | 32 h | 40 h
coculture fibroblast: C12385 | 0.797 | 0.7873 | 0.718 | 0.739 | 0.695
coculture fibroblast: H6013 | 0.9085 | 0.869 | 0.851 | 0.86 | 0.842
coculture fibroblast: H6019 | 0.827 | 0.787 | 0.74 | 0.784 | 0.772
coculture fibroblast: H6076 | 0.8961 | 0.82 | 0.802 | 0.7905 | 0.7694
coculture fibroblast: H6231 | 0.947 | 0.8987 | 0.8391 | 0.796 | 0.7574
coculture fibroblast: HADF | 0.907 | 0.881 | 0.851 | 0.841 | 0.807
coculture fibroblast: HCFa | 0.91 | 0.875 | 0.868 | 0.864 | 0.838
coculture fibroblast: HCPF | 0.9283 | 0.8484 | 0.795 | 0.778 | 0.733
coculture fibroblast: HHSteC | 0.9213 | 0.8986 | 0.8643 | 0.831 | –
coculture fibroblast: HMF | 0.9223 | 0.8515 | 0.797 | 0.7803 | –
coculture fibroblast: HPFa | 0.9578 | 0.9354 | 0.8894 | 0.849 | –
coculture fibroblast: HUF | 0.859 | 0.789 | 0.768 | 0.7004 | –
coculture fibroblast: Hs5 | 0.918 | 0.854 | 0.8068 | 0.774 | –
coculture fibroblast: Hs27A | 0.899 | 0.856 | 0.832 | 0.81 | –
coculture fibroblast: Hs343T | 0.92 | 0.849 | 0.837 | 0.822 | –
coculture fibroblast: WS1 | 0.769 | 0.7291 | 0.68 | 0.645 | –

Source: the supplement of paper PMC6078165
